# Construct, isoform or probe ends are uncertain for at least one entry. For some of these results: A weaker result is weaker than the reference pair of the same experiment. For some of these results: At least one verdict rests on a figure or table, not on a statement of the authors.
# Chains of the proteins cited; added tags and fusions are not shown.
# UniProt P06733, whole entry K358R: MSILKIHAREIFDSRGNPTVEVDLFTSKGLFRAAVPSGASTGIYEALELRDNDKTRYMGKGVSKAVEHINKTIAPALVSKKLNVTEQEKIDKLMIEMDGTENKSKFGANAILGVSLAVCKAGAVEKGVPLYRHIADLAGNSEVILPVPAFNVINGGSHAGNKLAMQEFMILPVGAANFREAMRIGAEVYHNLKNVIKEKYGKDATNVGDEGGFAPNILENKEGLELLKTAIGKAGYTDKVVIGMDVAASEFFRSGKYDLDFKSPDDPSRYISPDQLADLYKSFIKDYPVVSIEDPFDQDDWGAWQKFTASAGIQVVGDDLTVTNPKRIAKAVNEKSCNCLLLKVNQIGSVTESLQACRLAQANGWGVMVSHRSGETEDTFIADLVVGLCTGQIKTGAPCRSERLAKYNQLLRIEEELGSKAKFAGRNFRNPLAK
# UniProt P06733, whole entry K358Q: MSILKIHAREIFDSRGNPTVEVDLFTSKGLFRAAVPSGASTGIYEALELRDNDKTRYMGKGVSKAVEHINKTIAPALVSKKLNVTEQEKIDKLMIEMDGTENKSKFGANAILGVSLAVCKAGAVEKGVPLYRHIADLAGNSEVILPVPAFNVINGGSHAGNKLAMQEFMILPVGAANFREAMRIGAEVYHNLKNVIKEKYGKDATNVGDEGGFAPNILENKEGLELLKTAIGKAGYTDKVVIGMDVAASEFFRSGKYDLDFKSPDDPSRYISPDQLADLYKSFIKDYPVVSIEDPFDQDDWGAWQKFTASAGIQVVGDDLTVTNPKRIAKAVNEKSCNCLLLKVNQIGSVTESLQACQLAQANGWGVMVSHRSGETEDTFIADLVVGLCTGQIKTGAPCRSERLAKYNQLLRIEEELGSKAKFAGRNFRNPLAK
# Tests used:
# [1] = molecular target: ENO1 K358R (deacetylated mimetic) (UniProt P06733); assay: competition pull-down (streptavidin, western blot); details: with 2-PG, which competes with SNORA25; recombinant protein; label: biotin; probe letters rebuilt from the primers and the genome
# [2] = molecular target: ENO1 K358Q (acetylated mimetic) (UniProt P06733); assay: competition pull-down (streptavidin, western blot); details: with 2-PG, binding unchanged; recombinant protein; label: biotin; probe letters rebuilt from the primers and the genome
# [3] = molecular target: ENO1 K358R (deacetylated mimetic) (UniProt P06733); assay: pull-down (streptavidin, western blot); details: without 2-PG; recombinant protein; label: biotin; probe letters rebuilt from the primers and the genome
# [4] = molecular target: ENO1 K358Q (acetylated mimetic) (UniProt P06733); assay: pull-down (streptavidin, western blot); details: without 2-PG; recombinant protein; label: biotin; probe letters rebuilt from the primers and the genome
sequence,measurement,setting,value
GGGAGAGGGUCAUUUCAAAGAGGGCUUAUGAGGCUGUGAAACCCAGAGCUCUUAACGCUGUGACCAAAGAUGGAAGUUCUCUAUAGGAAGCCAUAGCACUCCUAAUGUUUGGUGCUAUGUUUUCCUGAGGAGAUAUAAAA [SNORA25],binding result,[1],binds more weakly
same,binding result,[2],binds
same,binding result,[3],binds
same,binding result,[4],binds
